This is one part of the list. Shown are side measurements of this screen, not its main read-out; they come without a call. Compounds called inactive in the main read-out are mostly missing here. Words in brackets tell the shape of the fitted curve; partial curves, single points and poor fits give uncertain potencies.
assay: Cell signaling CRE-BLA (Fsk stim); details: CHO CRE-bla reporter (cAMP response element driving beta-lactamase), forskolin EC10, beta-lactamase ratio; measured here: 460 nm blue channel
Method in brief: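 Reporter-gene assay: CHO cells with beta-lactamase behind cAMP responsive elements, co-treated with compound and EC10 NKH 477 for 3 hours at 37 degrees Celsius. Activity came from the 460/530 nm CCF4 emission ratio.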

| SMILES | AC50 |
| --- | --- |
| N#Cc1c(N)n(CCCN2CCOCC2)c2nc3ccccc3nc12 | 12.6 µM [rising, partial curve] |
| COC(=O)[C@@]1(Cc2ccccc2)[C@H]2c3cc(C(=O)N4CCCC4)n(Cc4ccc(C(F)(F)F)nc4)c3C[C@H]2CN1C(=O)c1ccccc1 | 20 µM [rising, single point] |
| Cc1cc(=O)oc2n[nH]c(-c3ccccc3)c12 | 10 µM [rising, partial curve] |
| O=C(CSc1nnnn1-c1cccnc1)NCc1cccs1 | 25.1 µM [falling, single point] |
| COC(=O)c1c(-c2ccccc2)csc1NC(=O)c1ccco1 | 2 µM [rising, partial curve] |
| COc1cc(OC)c(C(=O)NC2CCCCCC2)cc1OC | 10 µM [rising, partial curve] |
| CCOC(=O)c1cc2c(=O)n3ccccc3nc2n(CCCOC)c1=NC(C)=O | 12.6 µM [rising, partial curve] |
| Cc1noc(C)c1-c1ccc2ncnc(N(C)C)c2c1 | 6.31 µM [rising, partial curve] |
| CCC(Sc1nc(=O)cc(N)n1-c1cccc(C)c1)C(=O)Nc1cc(C)on1 (stereo not given) | 12.6 µM [falling, partial curve] |
| O=c1c(CCc2ccccc2)nc2cnc(N3CCOCC3)nc2n1-c1ccccc1 | 12.6 µM [rising, partial curve] |
| CC(C)=CC(=O)OCC(=O)Nc1nc(C)c(Cl)cc1Cl | 0.631 µM [falling, full curve] |
| CCn1c(=O)c(C(=O)NCCCO)c(O)c2ccccc21 | 10 µM [rising, partial curve] |
| CC(=O)c1cc(C#N)c(SCCC(C)C)nc1C | 5.01 µM [falling, single point] |
| COc1ccc(C(=O)NCC2OCCc3ccccc32)c(O)c1 (stereo not given) | 0.00316 µM [falling, full curve, poor fit] |
| CCOCCCNC(=O)c1cc2c(-c3ccc(Cl)cc3)nn(C)c2s1 | 1 µM [rising, partial curve] |
| Cc1ccnc2nc(C(=O)OCCOc3cccc(Br)c3)nn12 | 15.8 µM [rising, single point] |
| COC(=O)CNc1nc(-c2ccncc2)nc2ccccc12 | 7.94 µM [rising, partial curve] |
| COc1ccc(-c2noc(-c3ccccc3-c3ccccc3)n2)cc1OC | 6.31 µM [rising, partial curve] |
| CC(C)N1C(=O)C2C(C(=O)NCc3ccccc3)C3C=CC2(O3)C1C(=O)NC(C)(C)C (stereo not given) | 3.16 µM [falling, partial curve, poor fit] |
| CCOCCc1nnc(NC(=O)c2cc(OC)c(OC)c(OC)c2)s1 | 1.58 µM [rising, full curve] |
| CCOC(=O)c1ccccc1N/C=C1\CCCC1=O | 12.6 µM [rising, single point] |
| Cn1cc(C(=O)NCCN2CCN(c3ccccc3F)CC2)c2c3ccccc3n(C)c2c1=O | 25.1 µM [rising, single point] |
| CCCCNC(=O)c1cc2c(=O)n3cccc(C)c3nc2n(Cc2ccccc2)c1=N | 3.98 µM [rising, partial curve] |

| SMILES | AC50 |
| --- | --- |
| CCOC(=O)CC(=O)CSc1ccc2nnc(-c3cccc(F)c3)n2n1 | 10 µM [rising, partial curve] |
| COc1ccccc1OCc1ccc(C(=O)N2CCN3CCCC3C2)cc1 (stereo not given) | 0.0794 µM [falling, full curve, poor fit] |
| CSc1cccc(NC(=O)OC2CCCCCCCCCCC2)c1 | 0.501 µM [falling, single point] |
| Cc1cc(-c2nnco2)c(C)n1-c1ccccc1 | 10 µM [rising, partial curve] |
| CCOC(=O)N1CCC(NC(=O)CSCc2cnn(-c3ccccc3)c2-n2cccc2)CC1 | 5.01 µM [rising, single point] |
| Cn1c(=O)c2[nH]cnc2n(C)c1=O | 5.01 µM [rising, single point] |
| O=C(Nc1cccs1)NC1CCCC1 | 0.631 µM [falling, single point] |
| COCCn1c(=O)c(C)nc2cnc(Oc3cccc(Cl)c3)nc21 | 20 µM [rising, single point] |
| COC(=O)c1ccc(C(c2c(N)n(CC(C)C)c(=O)[nH]c2=O)N2CCN(c3ccccc3)CC2)cc1 (stereo not given) | 25.1 µM [rising, single point] |
| COC(=O)c1ccc(CSc2nc(-c3ccccc3)cs2)o1 | 12.6 µM [rising, single point] |
| Cc1cc(C)c(O)c(-c2cc(C(=O)Nc3ccc(S(=O)(=O)N4CCOCC4)cc3)[nH]n2)c1 | 25.1 µM [falling, single point] |
| COC(=O)c1cc(OC)c(OC)cc1NC(=O)c1cccnc1 | 5.01 µM [rising, partial curve] |
| C=CCN(CC=C)c1nc2ccccc2nc1C(C#N)C(=O)OCCOC (stereo not given) | 10 µM [rising, partial curve] |
| O=C(Oc1cccc(Br)c1)c1cccnc1 | 25.1 µM [falling, single point] |
| Cn1c(=O)c(-c2cc(F)cc(F)c2)nc2cnc(Oc3cccc(Cl)c3)nc21 | 10 µM [rising, partial curve] |
| Cc1ccsc1/C=N/n1cnc2sc(C)c(C)c2c1=O | 5.01 µM [falling, single point] |
| Cc1noc(C)c1S(=O)(=O)Nc1ccc(C(=O)O)cc1 | 12.6 µM [rising, single point] |
| CCOC(=O)NC(=O)CSc1nnnn1-c1ccc(C)cc1 | 0.316 µM [falling, full curve, poor fit] |
| CC(NC(=O)c1cccnc1)C(c1cccs1)N1CCOCC1 (stereo not given) | 1.58 µM [falling, partial curve] |
| COC(=O)c1ccc(NC(=O)CSc2nncn2C)cc1 | 3.98 µM [falling, single point] |
| Cc1ccnc2c1NC(=O)c1cccnc1N2C1CC1 | 15.8 µM [rising, single point] |
| COC(=O)c1ccc(CSc2nc(C)nc3sc(C)c(C)c23)o1 | 1.26 µM [rising, partial curve] |

Ordered by SMILES length (smallest number first): some entries from above.

| SMILES | AC50 |
| --- | --- |
| O=C(Nc1cccs1)NC1CCCC1 | 0.631 µM [falling, single point] |
| COC(=O)c1cc(OC)c(OC)cc1NC(=O)c1cccnc1 | 5.01 µM [rising, partial curve] |
| CCOC(=O)N1CCC(NC(=O)CSCc2cnn(-c3ccccc3)c2-n2cccc2)CC1 | 5.01 µM [rising, single point] |
